Data taken from PubChem BioAssay AID1159506, deposited by NCATS (2015).

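Luminescence from an EWS-FLI1 target-promoter (NR0B1) reporter, set against a CMV-promoter reporter, two days after silencing single genes in TC32 Ewing sarcoma cells. Each siRNA was applied at 20 nM. A z-score of the log NR0B1-over-CMV signal, less the median of siRNAs with the same seed; more negative means a stronger specific loss of the NR0B1 reporter.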

This is part of the screen; most of the strongest results are not listed here. Sequences are the guide (antisense) strand, without overhang.

AAACUUAUUUGAUCCACCC against SKAP1 gave seed-corrected z-score 0.1994. Result for AUGUCGAUUAAGCACAUCC against TOPAZ1 was seed-corrected z-score 0.009359. AAGUCAAAUAUAUCUAUGC against BMP2KL gave seed-corrected z-score -0.8054. UUUGUCGUAAGUUAUGUCG against KIF23 read seed-corrected z-score -0.7763. Result for AGUUUUAUACGGUAUUUCC against ASB2 was seed-corrected z-score 0.2324. ACACGUACCAGUCAUGUUU against ATP5J2 read seed-corrected z-score -0.6542. With UGAUGUAGCGUUCAUGGUG against LOC393078 the assay gave seed-corrected z-score 0.7713.

With UGCUUUUCUAAAUUGGUUG against BRDTP1 the assay gave seed-corrected z-score 1.822. With UCACGGUUGACUUGUCUGC against FRK the assay gave seed-corrected z-score 0.1419. For AUAGUCGACCUCAUACUGG against KCNJ14 the result was seed-corrected z-score -0.1647. With AUGAGUACGAGCAUAAUCC against PPIP5K2 the assay gave seed-corrected z-score 0.4662. With UAUCCGAGUAUGUCGACUG against AKAP8L the assay gave seed-corrected z-score -0.03608. Result for UCAUGGACUAUAGUGAUUG against KCNJ2 was seed-corrected z-score 0.04907. For UUUAAUGUAGAUUCGGAAG against SQSTM1 the result was seed-corrected z-score 0.916.

AUAGGAAGUAGUAGAAGCG against GPR152 gave seed-corrected z-score -1.385. UUCAUGAAGCCUGUUGUUG against ODF3 gave seed-corrected z-score 0.7536. For UGAGUUCUUAUCAAUGACC against SH3PXD2A the result was seed-corrected z-score -1.317. UUCUUGACCAAAGAGCUUG against SNX4 read seed-corrected z-score -1.007. For UCUCCGAAUCGGUUGGUGG against DACT2 the result was seed-corrected z-score 0.2573. For UUAGUUCCGAAGUCAGCUC against LCN2 the result was seed-corrected z-score -0.8333. With UAAAUAUAAUGGGAGAGUG against CXCL2 the assay gave seed-corrected z-score -0.079.

With AAAGUAAAACUAGAAGUGA against NDUFA7 the assay gave seed-corrected z-score 0.2761. Result for UUCAGUUCCAUUCUUGAUA against NSDHL was seed-corrected z-score 0.3504. For UUAGGCAGCACUGUCAUUG against FAM63A the result was seed-corrected z-score -1.079. Result for UCUCGUAGCUACAUAAUCG against CDKL4 was seed-corrected z-score 0.05465. UUUAUAGACACCCAUACCC against LAMP3 read seed-corrected z-score 0.832. AGAAUAGUUCCUAAUGACC against VAV3 gave seed-corrected z-score 0.7926. For UUCCCGACGAUAACCCUUC against SLC6A6 the result was seed-corrected z-score 0.387.

UAUCUCGACGAAAUGACCG against HSF5 gave seed-corrected z-score 0.41. UUAAAGGACAGGUCGAUCC against LRTOMT read seed-corrected z-score 0.06006. For AUAGUUGAAGUCGUCCUCG against TMBIM4 the result was seed-corrected z-score -0.5668. For UGCGCAGCAUCAUACUUGG against ORMDL2 the result was seed-corrected z-score 0.2043. With UUGUACUUGAGACCGCUGC against KAZN the assay gave seed-corrected z-score -0.214. For UUUCUUUUGACCUCGCUGU against HSD11B1 the result was seed-corrected z-score -0.3895. With UAAUGUCUCAAAGGUCUCU against CNPY3 the assay gave seed-corrected z-score -0.06284.

For UGGUGGUUAAGAUCGUCCC against TRIM2 the result was seed-corrected z-score -1.179. With ACAUUGUUUGAGAAAUUGC against CXCL17 the assay gave seed-corrected z-score 0.8101. UACAAAACCUAUAUACUCU against ID3 gave seed-corrected z-score 0.7304. UGCAGGUUUAUUCACCUCU against LOC645263 read seed-corrected z-score -0.1726. UUUUGUUCCAGGCGGAAUU against PDE6D read seed-corrected z-score 1.209. For UGUGAUAACUGGUUCAUGC against SCYL2 the result was seed-corrected z-score 0.3927. For UUCGGUUAGGCAUGGAUUG against RPL26P11 the result was seed-corrected z-score -0.01445.

AAUUUUUCUACCGCUUGUC against SH3GL3 read seed-corrected z-score -1.11. With UCCGCUAAACUGGAGAUCG against ZNF106 the assay gave seed-corrected z-score -0.03248.

Repeated from the top, 5 entries:

{"sirna": "AAACUUAUUUGAUCCACCC", "gene": "SKAP1", "seed-corrected z-score": "0.1994"}
{"sirna": "AUGUCGAUUAAGCACAUCC", "gene": "TOPAZ1", "seed-corrected z-score": "0.009359"}
{"sirna": "AAGUCAAAUAUAUCUAUGC", "gene": "BMP2KL", "seed-corrected z-score": "-0.8054"}
{"sirna": "UUUGUCGUAAGUUAUGUCG", "gene": "KIF23", "seed-corrected z-score": "-0.7763"}
{"sirna": "AGUUUUAUACGGUAUUUCC", "gene": "ASB2", "seed-corrected z-score": "0.2324"}